Measured values: article PMC10415143
These are yes or no findings as the source states them, for the method shown. Binding seen in cells or lysates may run through a third protein. Here binding means that the protein was enriched with, or labelled near, the bait; the list need not be complete.

Sequences of proteins named here, by UniProt entry; tags and fusion partners are left off. A change or cut given only in a name is not applied to a line headed by its entry.
UniProt Q57XA6: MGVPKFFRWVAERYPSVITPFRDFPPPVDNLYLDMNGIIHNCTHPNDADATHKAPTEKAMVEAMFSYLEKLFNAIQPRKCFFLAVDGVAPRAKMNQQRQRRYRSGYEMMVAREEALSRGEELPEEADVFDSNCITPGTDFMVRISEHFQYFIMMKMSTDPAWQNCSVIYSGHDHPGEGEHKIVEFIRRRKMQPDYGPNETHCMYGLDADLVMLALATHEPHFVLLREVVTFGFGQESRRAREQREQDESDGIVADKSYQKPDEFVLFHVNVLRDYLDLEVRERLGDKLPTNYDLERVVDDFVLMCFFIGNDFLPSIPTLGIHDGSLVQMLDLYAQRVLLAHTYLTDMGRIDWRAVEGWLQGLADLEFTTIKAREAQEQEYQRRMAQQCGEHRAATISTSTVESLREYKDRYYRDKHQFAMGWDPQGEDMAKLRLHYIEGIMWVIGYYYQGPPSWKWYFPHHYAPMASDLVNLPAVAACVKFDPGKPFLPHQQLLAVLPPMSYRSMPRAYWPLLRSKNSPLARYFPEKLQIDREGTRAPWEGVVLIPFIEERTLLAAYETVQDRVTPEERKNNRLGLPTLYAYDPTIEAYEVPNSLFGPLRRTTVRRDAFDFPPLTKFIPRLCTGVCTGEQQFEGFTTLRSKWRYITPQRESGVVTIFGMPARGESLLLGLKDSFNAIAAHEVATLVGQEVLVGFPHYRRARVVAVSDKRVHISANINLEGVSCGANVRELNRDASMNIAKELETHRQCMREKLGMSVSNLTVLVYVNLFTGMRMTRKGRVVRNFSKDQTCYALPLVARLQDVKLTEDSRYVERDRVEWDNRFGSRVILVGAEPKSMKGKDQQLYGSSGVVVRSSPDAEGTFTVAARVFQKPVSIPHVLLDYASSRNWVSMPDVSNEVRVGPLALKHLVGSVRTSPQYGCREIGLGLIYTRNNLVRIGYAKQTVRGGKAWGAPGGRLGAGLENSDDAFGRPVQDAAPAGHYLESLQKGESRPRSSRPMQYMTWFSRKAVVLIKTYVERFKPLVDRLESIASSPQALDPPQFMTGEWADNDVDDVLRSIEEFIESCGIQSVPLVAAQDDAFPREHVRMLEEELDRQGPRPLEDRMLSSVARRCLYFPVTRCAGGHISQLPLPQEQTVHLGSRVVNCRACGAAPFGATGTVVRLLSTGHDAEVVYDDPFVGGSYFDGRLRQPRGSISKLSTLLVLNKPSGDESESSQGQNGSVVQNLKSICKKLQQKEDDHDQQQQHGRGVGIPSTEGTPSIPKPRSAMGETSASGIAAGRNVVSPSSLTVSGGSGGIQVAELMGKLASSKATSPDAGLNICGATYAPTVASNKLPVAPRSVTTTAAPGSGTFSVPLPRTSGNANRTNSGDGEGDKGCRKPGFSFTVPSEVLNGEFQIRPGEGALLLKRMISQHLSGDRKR
UniProt Q389P3: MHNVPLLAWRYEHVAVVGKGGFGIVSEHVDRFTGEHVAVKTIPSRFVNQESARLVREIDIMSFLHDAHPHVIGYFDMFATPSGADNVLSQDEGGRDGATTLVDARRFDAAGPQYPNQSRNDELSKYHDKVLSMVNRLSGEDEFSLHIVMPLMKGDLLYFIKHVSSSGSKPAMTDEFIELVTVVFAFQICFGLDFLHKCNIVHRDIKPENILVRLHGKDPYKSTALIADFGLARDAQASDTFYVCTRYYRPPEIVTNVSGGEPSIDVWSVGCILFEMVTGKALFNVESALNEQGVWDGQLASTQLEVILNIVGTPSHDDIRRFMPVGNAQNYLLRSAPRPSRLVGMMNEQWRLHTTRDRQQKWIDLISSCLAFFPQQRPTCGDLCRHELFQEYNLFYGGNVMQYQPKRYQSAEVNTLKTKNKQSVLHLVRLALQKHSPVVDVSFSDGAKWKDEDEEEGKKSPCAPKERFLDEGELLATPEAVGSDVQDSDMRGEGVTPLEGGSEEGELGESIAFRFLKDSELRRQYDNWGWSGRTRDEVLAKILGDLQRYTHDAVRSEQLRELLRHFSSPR
UniProt Q583T9: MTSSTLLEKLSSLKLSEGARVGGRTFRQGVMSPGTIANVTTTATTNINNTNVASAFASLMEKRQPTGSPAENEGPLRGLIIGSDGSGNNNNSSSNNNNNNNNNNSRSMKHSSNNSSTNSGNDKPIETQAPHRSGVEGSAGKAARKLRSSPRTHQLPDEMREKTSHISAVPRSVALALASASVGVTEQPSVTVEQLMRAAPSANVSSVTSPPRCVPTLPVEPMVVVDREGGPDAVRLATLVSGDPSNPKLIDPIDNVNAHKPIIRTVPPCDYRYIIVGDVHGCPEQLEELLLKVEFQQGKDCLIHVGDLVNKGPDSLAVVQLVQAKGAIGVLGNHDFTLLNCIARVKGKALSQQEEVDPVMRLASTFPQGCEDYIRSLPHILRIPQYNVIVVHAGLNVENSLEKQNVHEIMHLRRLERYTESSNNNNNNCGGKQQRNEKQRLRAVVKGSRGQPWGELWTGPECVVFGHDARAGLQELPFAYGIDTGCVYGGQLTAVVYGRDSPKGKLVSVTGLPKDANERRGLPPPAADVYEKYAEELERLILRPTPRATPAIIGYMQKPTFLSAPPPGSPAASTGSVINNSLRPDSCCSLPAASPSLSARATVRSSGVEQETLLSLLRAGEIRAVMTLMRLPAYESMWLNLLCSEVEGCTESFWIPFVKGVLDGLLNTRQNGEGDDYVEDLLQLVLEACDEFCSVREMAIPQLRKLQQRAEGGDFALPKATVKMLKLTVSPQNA
UniProt Q57XZ3: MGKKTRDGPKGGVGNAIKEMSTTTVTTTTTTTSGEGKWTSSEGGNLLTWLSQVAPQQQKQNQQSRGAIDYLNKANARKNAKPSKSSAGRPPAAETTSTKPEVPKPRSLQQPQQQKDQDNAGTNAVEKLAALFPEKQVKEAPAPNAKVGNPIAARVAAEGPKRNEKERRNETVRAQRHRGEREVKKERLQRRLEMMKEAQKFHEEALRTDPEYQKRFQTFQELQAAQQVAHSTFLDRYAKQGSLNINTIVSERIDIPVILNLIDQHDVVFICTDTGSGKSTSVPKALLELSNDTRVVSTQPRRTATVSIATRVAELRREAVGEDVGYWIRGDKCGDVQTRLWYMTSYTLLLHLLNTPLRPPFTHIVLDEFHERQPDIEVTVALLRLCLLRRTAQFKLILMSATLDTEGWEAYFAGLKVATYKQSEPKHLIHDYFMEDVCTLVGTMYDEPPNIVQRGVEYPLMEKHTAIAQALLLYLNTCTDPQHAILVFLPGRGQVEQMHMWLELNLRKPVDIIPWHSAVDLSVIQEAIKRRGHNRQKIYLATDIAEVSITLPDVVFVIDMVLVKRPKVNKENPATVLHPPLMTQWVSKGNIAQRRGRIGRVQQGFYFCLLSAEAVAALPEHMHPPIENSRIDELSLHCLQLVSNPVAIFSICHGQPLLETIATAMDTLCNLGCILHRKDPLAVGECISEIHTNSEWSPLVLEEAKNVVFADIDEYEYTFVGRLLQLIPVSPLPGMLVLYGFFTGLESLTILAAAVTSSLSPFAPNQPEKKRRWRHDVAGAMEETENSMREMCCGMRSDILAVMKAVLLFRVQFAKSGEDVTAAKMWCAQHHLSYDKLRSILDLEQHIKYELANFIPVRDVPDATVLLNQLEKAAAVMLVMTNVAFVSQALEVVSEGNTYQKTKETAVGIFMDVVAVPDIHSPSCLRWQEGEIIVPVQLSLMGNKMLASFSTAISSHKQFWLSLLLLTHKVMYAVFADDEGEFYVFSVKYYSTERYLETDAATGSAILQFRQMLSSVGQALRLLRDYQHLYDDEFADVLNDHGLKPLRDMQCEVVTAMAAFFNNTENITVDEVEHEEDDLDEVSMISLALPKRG
UniProt Q57UM8: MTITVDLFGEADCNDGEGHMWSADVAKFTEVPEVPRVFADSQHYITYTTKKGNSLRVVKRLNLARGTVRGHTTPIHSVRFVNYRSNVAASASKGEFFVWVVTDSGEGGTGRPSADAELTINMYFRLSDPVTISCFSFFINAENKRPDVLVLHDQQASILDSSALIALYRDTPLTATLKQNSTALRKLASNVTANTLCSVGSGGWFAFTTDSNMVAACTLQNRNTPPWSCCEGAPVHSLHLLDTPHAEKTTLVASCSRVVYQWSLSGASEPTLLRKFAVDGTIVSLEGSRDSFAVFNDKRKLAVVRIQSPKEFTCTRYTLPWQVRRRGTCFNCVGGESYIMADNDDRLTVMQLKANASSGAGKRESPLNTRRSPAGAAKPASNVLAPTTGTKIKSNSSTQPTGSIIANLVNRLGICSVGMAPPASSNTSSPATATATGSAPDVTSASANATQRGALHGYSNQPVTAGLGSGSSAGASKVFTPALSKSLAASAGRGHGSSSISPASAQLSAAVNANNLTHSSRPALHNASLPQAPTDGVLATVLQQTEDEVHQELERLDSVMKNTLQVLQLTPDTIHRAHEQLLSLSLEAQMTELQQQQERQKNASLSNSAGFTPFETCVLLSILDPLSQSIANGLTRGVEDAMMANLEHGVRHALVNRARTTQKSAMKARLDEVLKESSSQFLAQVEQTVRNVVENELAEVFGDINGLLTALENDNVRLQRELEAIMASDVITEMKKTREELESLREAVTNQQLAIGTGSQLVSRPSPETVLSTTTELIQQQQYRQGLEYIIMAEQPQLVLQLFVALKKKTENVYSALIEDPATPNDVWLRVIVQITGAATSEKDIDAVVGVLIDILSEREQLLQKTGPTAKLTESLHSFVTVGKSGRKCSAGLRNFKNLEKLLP

Tests used:
[1] = molecular target: XRNA fused to a C-terminal mNeonGreen tag (T. brucei) (UniProt Q57XA6); assay: affinity purification with mass spectrometry; T. brucei procyclic cells cryomilled; 20 mM HEPES pH 7.4, 250 mM NaCl, 0.5% CHAPS; capture on mNeonGreen Trap (XRNA-mNeonGreen) or GFP Trap (ALPH1 eYFP fusions) magnetic agarose; LC-MSMS; wild type cells as control
[2] = molecular target: CMGC-type protein kinase Tb927.10.10870 as C-terminal TurboID-HA fusion (T. brucei) (UniProt Q389P3); assay: proximity labelling; CMGC kinase Tb927.10.10870-TurboID-HA from its endogenous locus in T. brucei; streptavidin beads, LC-MSMS; compared with parental cells and the eYFP control
[3] = molecular target: ALPH1 as N-terminal eYFP fusion (T. brucei) (UniProt Q583T9); assay: affinity purification with mass spectrometry; T. brucei procyclic cells cryomilled; 20 mM HEPES pH 7.4, 250 mM NaCl, 0.5% CHAPS; capture on mNeonGreen Trap (XRNA-mNeonGreen) or GFP Trap (ALPH1 eYFP fusions) magnetic agarose; LC-MSMS; wild type cells as control
[4] = molecular target: ALPH1 as C-terminal eYFP fusion (T. brucei) (UniProt Q583T9); assay: as above

binding [1] | Substance | binding [2] | binding [3] | binding [4]
binds | ALPH1, endogenous (from UniProt Q583T9) (enzyme) | binds | – | –
binds | RNA helicase Tb927.4.3890, endogenous (from UniProt Q57XZ3) (enzyme) | – | – | –
– | Tc40 antigen-like protein Tb927.7.3980, endogenous (from UniProt Q57UM8) | binds | binds | binds
